# The campaign covered roughly 330,000 compounds. About 7,700 (2.3%) were called active. Inconclusive results, whose numbers are uncertain, are shown with a selection of clear calls. Calls come from the whole dose curve; as a rule, active = well fitted inhibition curve with a large enough effect; inconclusive = small, poorly fitted or top-dose-only effect, or effect the other way; inactive = flat fitted curve, though single readings scatter. A potency beside an inconclusive call is a rough fit, not a confirmed value.
# Assay: qHTS screen for small molecules that inhibit ELG1-dependent DNA repair in human embryonic kidney (HEK293T) cells expressing luciferase-tagged ELG1; note: nearly all actives have a fitted effect of over 55% in size
# Details: HEK293T ELG1-luciferase reporter, luminescence, 16 h, DNA damage induced by 5-fluorouridine; series mostly up to 46.1 µM
# Method in brief: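 Quantitative HTS, concentration-response format. 2,000 cells/well co-treated with 5-fluorouridine and compound, 16 hr in 5% CO2 at 37 °C; ONE-Glo luminescence read after 30 min.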
# Potency is the fitted concentration of half-maximal effect.
row,Compound,Potency
1,Cc1ccc2[nH]c(=O)c(CN(CC3COCCO3)C(=O)Nc3ccccc3C)cc2c1 (configuration not stated),"inconclusive: 18.3 µM [inhibitor, partial curve, poor fit]"
2,CCCCc1c(C)nc2c(OC)cccc2c1SCC(=O)O,"inconclusive: 29.1 µM [activator, single point]"
3,CC(/C=N/Nc1nnc(C)c(=O)[nH]1)=C\c1ccccc1,"inconclusive: 8.2 µM [activator, partial curve]"
4,Cc1ccc(SCc2[nH]nc3c2C(c2ccco2)C(C#N)=C(N)O3)cc1 (configuration not stated),inactive
5,Cc1ccc(C(=O)Nc2nc(-c3ccccn3)cs2)s1,"inconclusive: 29.1 µM [activator, single point]"
6,N#Cc1ccsc1NC(=O)COC(=O)c1cc2ccccc2cc1O,"inconclusive: 20.6 µM [activator, partial curve]"
7,C/C(=N\NC(=O)C1(C)CC1(Br)Br)c1ccc(NC(=O)C2CCC2)cc1 (configuration not stated),active: 6.51 µM
8,Cc1ccccc1-c1nc(CS(=O)(=O)CC(=O)N2CCOCC2)c(C)o1,inactive
9,CN(Cc1ccccn1)C(=O)C1CCC(=O)N(Cc2cccc(C(F)(F)F)c2)C1 (configuration not stated),inactive
10,Nc1c(C(=O)c2cccs2)oc2ccccc12,"inconclusive: 12.6 µM [activator, partial curve]"
11,C#CCOCCOCCOCCNc1nc(N2CCN(C(=O)[C@H]([C@@H](C)CC)n3cc(CCCCN)nn3)CC2)nc(N2CCN(C(=O)[C@H]([C@@H](C)CC)n3cc(CCCN=C(N)N)nn3)CC2)n1,"inconclusive: 17.8 µM [activator, single point]"
12,NC(=O)c1ccsc1NC(=O)c1ccc(N2CCCC2=O)cc1,"inconclusive: 2.59 µM [activator, partial curve]"
13,COc1ccc(CC(=O)OCC(=O)c2ccc(F)cc2)cc1,"inconclusive: 18.3 µM [activator, single point]"
14,CC1=NN(S(=O)(=O)c2ccc(C)cc2)C(=O)c2ccccc2O1,"inconclusive: 11.6 µM [activator, partial curve]"
15,CCCCCC(=O)Nc1ccc(-c2cn3cccnc3n2)cc1,"inconclusive: 18.3 µM [activator, partial curve]"
16,CCc1nc(NC(C)C)c2oc3ccccc3c2n1,inactive
17,O=[N+]([O-])c1cccc(S(=O)(=O)Nc2cccc(-c3ccc(N4CCOCC4)nn3)c2)c1,"inconclusive: 29.1 µM [activator, single point]"
18,CCOC(=O)C(C)n1cnc2c(nnn2-c2ccc(C)cc2)c1=O (configuration not stated),"inconclusive: 20.6 µM [activator, single point]"
19,COc1ccc(/C=N/NC(=O)c2ccoc2C)cc1CN1CCN(c2ccc(F)cc2)CC1,active: 2.59 µM
20,CCCCCCCCCC(=O)Nc1cccnc1,inactive
21,OC[C@@H](O)[C@@H](O)[C@H](O)[C@H](O)CO,inactive
22,CCOC(=O)c1ccc(N2Cc3ccccc3C2)cc1O,"inconclusive: 20.6 µM [activator, partial curve]"
23,Cc1noc(C)c1C(=O)OCC(=O)c1c(N)n(CC(C)C)c(=O)n(C)c1=O,"inconclusive: 23.1 µM [inhibitor, partial curve]"
24,O=C(Nc1ccc(Cc2ccncc2)cc1)C1CCC(N2C(=O)C3C4C=CC(C4)C3C2=O)CC1 (configuration not stated),active: 6.51 µM

row,Compound,Potency
1,CCOC(=O)C1=C(C)OC(N)=C(C#N)C1c1ccc(C)s1 (configuration not stated),inactive
2,Nc1c(S(=O)(=O)c2cccs2)c2nc3ccccc3nc2n1Cc1cccs1,inactive
3,Cc1cccc(OCC(=O)Nc2ccc3c4c(cccc24)CC3)c1C,"inconclusive: 16.4 µM [activator, single point]"
4,Cc1cc2ccccc2n1CCNC(=O)C(C)Oc1ccccc1 (configuration not stated),"inconclusive: 13 µM [inhibitor, partial curve, poor fit]"
5,CCOC(=O)c1cc(-c2ccncc2)nc2c1c(C)nn2C,"inconclusive: 20.6 µM [inhibitor, single point]"
6,O=C(Nc1ccc(OC(F)(F)F)cc1)c1cnccn1,"inconclusive: 7.94 µM [activator, partial curve]"
7,Cc1cccc(/C=N\NC(=O)c2ccccc2-n2cccc2)c1,inactive
8,CC(C)c1ccc(C(=O)N(c2ccccn2)C(C)c2ccco2)cc1 (configuration not stated),"inconclusive: 18.4 µM [activator, partial curve]"
9,Cn1c(=O)[nH]c(=O)c2c1nc(N1CCCCCC1)n2Cc1cccc2ccccc12,inactive
10,COc1ccc(/C=C/C(=O)OCC(=O)NCc2ccco2)cc1OC,"inconclusive: 29.1 µM [inhibitor, single point]"
11,CCOC(=O)c1sc(NC(=O)c2ccc(C)o2)nc1C,"inconclusive: 2.91 µM [activator, full curve]"
12,C/C(=N\Nc1nc(C)cc(C)n1)c1ccc(C)o1,inactive
13,CCN(C(=O)CSc1ncn[nH]1)C1CCCCC1,inactive
14,COCCn1c(SCC(=O)Nc2ccc(OC)cc2)nnc1-c1ccoc1C,"inconclusive: 20.6 µM [activator, partial curve, poor fit]"
15,CC(C)CC(NC(=O)c1cccs1)c1nnc(SCc2ccc(Cl)c(Cl)c2)n1C (configuration not stated),"inconclusive: 10.3 µM [inhibitor, partial curve, poor fit]"
16,Cc1cc2cc(C)c(NCCNC(=O)c3cccs3)nc2cc1C,"inconclusive: 18.3 µM [inhibitor, partial curve]"
17,CC(=O)Nc1ccc(C(=O)N/N=C/c2ccccc2OC(=O)c2ccc(Cl)cc2)cc1,"inconclusive: 20.6 µM [inhibitor, partial curve, poor fit]"
18,Cc1cc(NC(=O)CSc2nc3cc(C)c(C)cc3cc2C)no1,inactive
19,CC(=O)Nc1ccc(Nc2nc(C)nc3c2oc2ccccc23)cc1,"inconclusive: 16.4 µM [inhibitor, partial curve]"
20,Cc1ccc(C(C(=O)NCc2ccc(F)cc2)N(CCCO)C(=O)C2COc3ccccc3O2)o1 (configuration not stated),inactive
21,CCOc1ccc(S(=O)(=O)/N=C(/Nc2ccc(OC)cc2)c2ccccc2)cc1,inactive
22,COc1cc2c(c(OC)c1OC)CCc1cnoc1-2,"inconclusive: 29.1 µM [inhibitor, single point]"
23,CCO[C@@H]1OC(C(=O)N2CCOCC2)=C[C@H](C2CC2)[C@H]1CCCO,"inconclusive: 9.2 µM [activator, partial curve, poor fit]"
24,COc1ccc(-n2nc3ccccc3n2)cc1,inactive

# 4 of the compounds above, tab-delimited:
row	Compound	Potency
2	Nc1c(S(=O)(=O)c2cccs2)c2nc3ccccc3nc2n1Cc1cccs1	inactive
14	COCCn1c(SCC(=O)Nc2ccc(OC)cc2)nnc1-c1ccoc1C	inconclusive: 20.6 µM [activator, partial curve, poor fit]
18	Cc1cc(NC(=O)CSc2nc3cc(C)c(C)cc3cc2C)no1	inactive
19	CC(=O)Nc1ccc(Nc2nc(C)nc3c2oc2ccccc23)cc1	inconclusive: 16.4 µM [inhibitor, partial curve]

# Further records:

row,Compound,Potency
1,O=C(C1=C[C@H](C2CC2)C[C@H](OCc2ccc(CO)cc2)O1)N1CCN(Cc2ccccc2)CC1,"inconclusive: 20.6 µM [inhibitor, partial curve]"
2,O=C(NCc1ccccn1)Nc1ccc(Cl)cc1Cl,"inconclusive: 20.6 µM [activator, partial curve]"
3,Cc1ccc(-c2nc(C)sc2CC(=O)Nc2cccc(C)c2C)cc1,inactive
4,COc1ccc(NC(=O)c2ccc(Br)o2)c([N+](=O)[O-])c1,"inconclusive: 18.4 µM [activator, partial curve]"
5,CCc1ccc(C(C(=O)NC2CCCCC2)N(C(=O)c2csnn2)C2CC2)cc1 (configuration not stated),inactive
6,Cc1ccc(NC(=O)c2ccccc2NC(=O)c2cccnc2)cc1,"inconclusive: 29.1 µM [inhibitor, single point]"
7,COc1ccccc1NC(=O)Nc1ccc(CC#N)cc1,"inconclusive: 16.4 µM [activator, partial curve]"
8,Cn1ccnc1SCC(=O)c1cccc(Br)c1,"inconclusive: 18.4 µM [activator, partial curve]"
9,Cc1cc(C)cc(N(CC(=O)N2CCN(c3ccccc3)CC2)S(=O)(=O)c2c(C)noc2C)c1,"inconclusive: 29.1 µM [inhibitor, single point]"
10,CN(C[C@H](Cc1ccccc1)N(C[C@H](Cc1ccccc1)N(CCC(C)(C)C)N=O)N=O)N=O,inactive
11,COc1ccc2c(c1)c(CC(=O)Nc1nnc(C3CC3)s1)c(C)n2C(=O)c1ccc(Cl)cc1,active: 5.8 µM
12,Clc1ccc(-c2nnc3cccc(Cl)n23)c(Cl)c1,"inconclusive: 3.26 µM [inhibitor, single point]"
13,Cc1ccc(C(=O)C(C)OC(=O)CNS(=O)(=O)c2ccc(C)cc2)cc1 (configuration not stated),inactive
14,Cc1cc(OCC(=O)OCC(=O)NCc2ccc3c(c2)OCO3)ccc1Cl,"inconclusive: 29.1 µM [activator, partial curve, poor fit]"
15,Cc1cccc(/C=N/Nc2nncc3ccccc23)c1,"inconclusive: 2.06 µM [activator, partial curve]"
16,CC(NC(=O)CCSc1nc(-c2ccco2)cc(C(F)(F)F)n1)c1ccccc1 (configuration not stated),inactive
17,Nc1ccc(-c2nc3ccccc3s2)cn1,"inconclusive: 7.3 µM [activator, partial curve]"
18,O=S(=O)(c1ccc(F)c(F)c1F)N1CCN(C(=S)Nc2ccccc2)CC1,"inconclusive: 18.3 µM [inhibitor, single point]"
19,CCOC(=O)CCC(=O)Nc1ccc(S(=O)(=O)N2CCCC2)cc1,inactive
20,O=C(COc1ccc(F)cc1)Nc1ccccc1N1CCOCC1,inactive
21,S=C(NN=C(C1CC1)C1CC1)Nc1ccccc1,"inconclusive: 23.1 µM [activator, partial curve]"
22,CCC1(c2ccccc2)NC(=S)N(c2cccc(C)c2C)N1 (configuration not stated),inactive
23,CCOc1ccc(-c2csc(NC(=O)c3ccco3)n2)cc1,"inconclusive: 18.3 µM [activator, partial curve]"
24,O=C(NNC(=S)Nc1ccc(Cl)cc1)c1ccccc1,"inconclusive: 5.17 µM [activator, single point]"
